In the supplement of paper PMC6119338:
± gives the standard deviation of the averaged measurements. The list shows a part of the results. Most values come without repeats; read them as rough.

Test system: Plasmodium berghei sporozoites
Experiment: residual sporozoite gliding motility relative to DMSO control; higher = less inhibition of motility
Details: 10 µM; incubation time 30 min

Residual sporozoite gliding motility, > 50%:
CCN(CC)c1ccc(NC(=O)c2cccs2)cc1
CCCCCCOC(=O)C1=C(C)NC(=O)NC1c1ccccc1F (stereo not given)
CC1CC2=C(CC1CNCCCN(C)C)C(C)(C)CCC2 (stereo not given)
CCOC(=O)c1cn(CC)c2cc(N(C)CCc3ccc(OC)c(OC)c3)c(F)cc2c1=O
C[n+]1c2ccccc2nc2ccc(NCCO)cc21
COc1ccc(CCNC(=O)c2cc(S(=O)(=O)N3CC(C)CC(C)C3)ccc2Sc2ccc(F)cc2)cc1OC (stereo not given)
Cc1ccc(-c2cc3c(nn2)-c2ccccc2C3=O)cc1
C=C(C)CCC(C)N1CCC(N2CCC(C(=O)NCCc3ccccc3)CC2)CC1 (stereo not given)
O=C(Nc1nc(-c2ccccn2)cs1)c1ccccc1Br
COc1ccc(C2NCCc3c2[nH]c2ccccc32)cc1CN1CCN(c2ccc(F)cc2)CC1 (stereo not given)
COc1cc(OC)cc(N2C(=O)N(Cc3ccc(C(C)(C)C)cc3)c3ccccc3S2(=O)=O)c1
Cc1ccccc1OCCSc1nc2ccc(NC(=O)c3cccs3)cc2s1
Clc1ccc2[nH]c3c(NCCCN4CCOCC4)ncnc3c2c1
Oc1c(C(Nc2ccccn2)c2cccc(Oc3ccccc3)c2)ccc2cccnc12 (stereo not given)
COc1ccc(CNC2CCN(c3ccc(NC(=O)c4cccc(Cl)c4)cc3)CC2)cc1OC
CCOC(=O)c1cnc2c(C)cc(C)cc2c1Nc1ccc(OC)c(OC)c1
O=C(Nc1ccc(CN2CCOCC2)cc1)c1ccc(-c2ccc(Br)cc2)o1
CCCC(c1nnnn1C1CCCCC1)N1CCN(C(=O)c2ccco2)CC1 (stereo not given)
Cc1ccc(Nc2nc(NCCO)c3ccccc3n2)cc1C
Cc1c(C)n(CC(O)CNC2CCCCC2C)c2ccccc12 (stereo not given)
Cc1ccc2cc3c(N)c4c(C)ccc(C)c4nc3nc2c1
CCCCCCc1cc2cc(-c3csc(C=Cc4ccccc4)n3)c(=O)oc2cc1O
COc1cc(-c2nc(-c3ccccc3)c(-c3ccccc3)[nH]2)cc(OC)c1O
C=CCc1c(C)nc2ccccc2c1O
COCCNC(=O)c1ccc(OC2CCN(Cc3ccc(F)c(F)c3)CC2)c(Cl)c1
CC(C)CNC(=O)c1c(N)n(CCc2ccccc2F)c2nc3ccccc3nc12
CCOC(=O)C1=C(C)N=c2sc(=Cc3ccccc3O)c(=O)n2C1c1ccc(OC)c2ccccc12 (stereo not given)
CC(=O)c1sc(NC(=O)Nc2ccc(C)cc2C)nc1C
Cc1ccccc1OCCSc1nc2ccc(NC(=O)c3ccccc3)cc2s1
CCCc1c(C)nc2ccccc2c1O
COc1cc(C(=O)ON=C(N)Cc2cccc3ccccc23)cc(OC)c1OC
Cc1sc(NC(=O)c2ccco2)c(C(c2cccnc2)N2CCC(Cc3ccccc3)CC2)c1C (stereo not given)
COc1ccc2sc(N(Cc3cccnc3)C(=O)c3ccc(C#N)cc3)nc2c1
CCCN(CCC)CC(O)COc1ccccc1C(=O)Nc1ccccc1 (stereo not given)

Arranged by count of non-hydrogen atoms (smallest number first): 3 of the compounds above.
Residual sporozoite gliding motility, > 50%:
CC(=O)c1sc(NC(=O)Nc2ccc(C)cc2C)nc1C
Cc1ccc(Nc2nc(NCCO)c3ccccc3n2)cc1C
C=C(C)CCC(C)N1CCC(N2CCC(C(=O)NCCc3ccccc3)CC2)CC1 (stereo not given)

Following part:

Residual sporozoite gliding motility, 55 ± 35%:
Oc1c(CN2CCN(c3ccccc3F)CC2)cc(Br)c2cccnc12
